PubChem BioAssay AID652272, Drosophila RNAi Screening Center – 2013
Aim: 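Finding fly genes that regulate Hedgehog signal transduction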 (primary screen). Cell system: Drosophila clone 8 (Cl8) cells. Reagent: long dsRNA against Drosophila genes. Measured: 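Firefly light from a Hedgehog-responsive ptc promoter reporter and Renilla reference light, both read on a plate reader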. Reading the numbers: firefly Hh reporter signal: higher = more ptc reporter light; Renilla reference signal: higher = more Renilla control light. Call rule: 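Hit when the z-score averaged over two replicates is under -2 or over +3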. Calls: active = hit: reporter lowered or raised; inactive = not a hit.
The screen tested about 21,000 reagents; shown is an unselected part of those that have a named target and a result. In the full data, 503 (2.4%) got an active call. 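Raw plate light values, not normalised; calls rest on replicate z-scores that were not deposited; hits include reporter decreases as well as increases.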 Unmarked entries are inactive. Not given: the amount of reagent, the time to read-out.

no.	target gene	amplicon	firefly Hh reporter signal, replicate 1	firefly Hh reporter signal, replicate 2	Renilla reference signal, replicate 1	Renilla reference signal, replicate 2
1	RpS19a	DRSC20281	30741 (active)	70855	2260	7079
2	CG42792	DRSC01515	1.22e5	2.71e5	2885	11712
3	roh	DRSC04003	1.38e5	2.20e5	3592	11057
4	CG17724	DRSC06687	1.42e5	38636	5154	1172
5	mav	DRSC17149	90572	2.69e5	2748	9293
6	CR10032	DRSC12499	72812	99024	2982	2667
7	pnr	DRSC17027	1.73e5	1.07e5	7096	4673
8	CG14220	DRSC19577	79046	1.53e5	2316	8565
9	CG3032	DRSC18266	91111	1.82e5	2932	6569
10	Vps39	DRSC16205	1.56e5	1.17e5	5824	4297
11	CG31826	DRSC03357	96924	57735	2662	4838
12	lili	DRSC14143	1.49e5	69476	5410	2851
13	escl	DRSC02828	1.99e5	1.04e5	7364	4123
14	CaBP1	DRSC01984	61610	63152	2873	2925
15	eIF3m	DRSC07142	54845	37909	2012	1680
16	CG10470	DRSC02061	67396	39116	1754	4340
17	lute	DRSC14812	76823	91305	1756	2384
18	lute	DRSC15769	1.12e5	1.17e5	5258	4276
19	Nup93-1	DRSC19344	57738	45091	1456	1203
20	nahoda	DRSC03954	1.47e5	2.45e5	3904	11713
21	nahoda	DRSC04126	1.35e5	78805	5578	2931
22	Mst87F	DRSC16747	1.47e5	1.29e5	4901	4315
23	GNBP2	DRSC10404	94997	51973	3667	1428

In a second layout: 3 of the entries above.
target gene | amplicon | firefly Hh reporter signal, replicate 1 | firefly Hh reporter signal, replicate 2 | Renilla reference signal, replicate 1 | Renilla reference signal, replicate 2
RpS19a | DRSC20281 | 30741 (active) | 70855 | 2260 | 7079
CG42792 | DRSC01515 | 1.22e5 | 2.71e5 | 2885 | 11712
roh | DRSC04003 | 1.38e5 | 2.20e5 | 3592 | 11057
